# Source: the supplement of paper PMC12067093, “Discovery and optimisation of a covalent ligand for TRIM25 and its application to targeted protein ubiquitination” (Chemical Science, 2025)
# The list shows a part of the results.
# Compound: Cc1cc(ccc1-c1ccccc1)C(=O)N1CCCN(CC1)C(=O)CCl [compound 10]
# Assay: probe-labelled cysteine peptide fold change vs DMSO (competition) (log2 fold change); higher = less target engagement (more negative = stronger competition)
# Conditions: THP-1, incubation time: 4 h
# 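Also: competitive profiling in live THP-1 cells: cysteine peptides tagged with an iodoacetamide desthiobiotin (IA-DTB) probe, intensity after compound treatment relative to DMSO-treated cells.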
Target,probe-labelled cysteine peptide fold change (10 µM),probe-labelled cysteine peptide fold change (50 µM)
NAT1_P18440_44_AVPFENLNIHCGDAMDLGLEAIFDQVVRR (UniProt P18440),-0.215,-0.728
NAXE_Q8NCW5_158_RPNKPLFTALVTQCQK (UniProt Q8NCW5),-0.0701,-0.187
NCAPH_Q15003_255_TAASFDECSTAGVFLSTLHCQDYR (UniProt Q15003),-0.0675,-0.288
NADSYN1_Q6IA69_416_ILTTCYMASK (UniProt Q6IA69),-0.139,-0.22
NCAM1_P13591_96_CVVTGEDGSESEATVNVK (UniProt P13591),-0.282,0.0411
NBN_O60934_31_NCAILIENDQSISR (UniProt O60934),0.173,0.051
NAPA_P54920_212+215_AALCHFCIDMLNAK (UniProt P54920),0.248,-0.17
MYO18A_Q92614_783_SSQHSLCSMMIVDTPGFQNPEQGGSAR (UniProt Q92614),0.03,0.0532
NBEAL2_Q6ZNJ1_1619_REEACYVLSK (UniProt Q6ZNJ1),-0.075,-0.00801
MYO6_Q9UM54_1102_DTINTSCDIELLAACREEFHR (UniProt Q9UM54),-0.173,-0.382
MYO1G_B0I1T2_965_VGELVGVLAAHCQGEGR (UniProt B0I1T2),0.03,-0.255
NCBP1_Q09161_477+483_ILDIVPPTFSALCPANPTCIYK (UniProt Q09161),-0.0108,0.12
NBN_O60934_478_DEENQEMSSCK (UniProt O60934),-0.275,-0.425
NAA15_Q9BXJ9_214_EALEHLCTYEK (UniProt Q9BXJ9),0.152,0.056
NAXE_Q8NCW5_283_KYQLNLPPYPDTECVYR (UniProt Q8NCW5),-0.141,-0.122
NBR1_Q14596_505_TDDLTCQQEETFLLAK (UniProt Q14596),-0.0532,0.148
NACC1_Q96RE7_178_VKTEQQESDSVQCMPVAK (UniProt Q96RE7),-0.278,-0.63
NAA16_Q6N069_221_QICDKLLVEEIK (UniProt Q6N069),0.143,-0.793
NAPA_P54920_84_HDAATCFVDAGNAFKK (UniProt P54920),0.00454,-0.097
MYO18A_Q92614_811_GASFEELCHNYTQDR (UniProt Q92614),0.0779,-0.0101
NARS_O43776_359_LEDLVCDVVDR (UniProt O43776),0.394,0.672

# Reprinted at random: 2 entries already listed, in no set order.
Target,probe-labelled cysteine peptide fold change (10 µM),probe-labelled cysteine peptide fold change (50 µM)
NBEAL2_Q6ZNJ1_1619_REEACYVLSK (UniProt Q6ZNJ1),-0.075,-0.00801
MYO18A_Q92614_783_SSQHSLCSMMIVDTPGFQNPEQGGSAR (UniProt Q92614),0.03,0.0532
